This test deals with T1, Yap8 (S. cerevisiae) (UniProt Q06596).
T1 sequence: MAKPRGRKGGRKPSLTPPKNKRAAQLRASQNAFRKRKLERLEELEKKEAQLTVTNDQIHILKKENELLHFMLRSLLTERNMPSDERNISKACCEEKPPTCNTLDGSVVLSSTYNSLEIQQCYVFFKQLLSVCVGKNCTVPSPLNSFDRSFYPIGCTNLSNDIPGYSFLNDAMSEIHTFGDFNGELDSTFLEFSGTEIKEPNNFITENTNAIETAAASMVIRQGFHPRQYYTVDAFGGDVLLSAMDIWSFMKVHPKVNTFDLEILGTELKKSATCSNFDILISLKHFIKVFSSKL
Briefly: two-hybrid; dedicated yeast two-hybrid assay; full-length Yap8 as bait, full-length Etp1 as prey; told only in the discussion, no methods or figure.

These are yes or no findings as the source states them, for the method shown.

B1: Etp1 (protein, UniProt P38748 1-585)
chain: MDQFEYIITLEFGNQNQVESAYQIFKSIPKKLKAKSIGEESIKSNNQDWQDWRVCDLEIDMITDFKNQTSKEEESDLITSQYLGHGIIRLFKLSNANNTLNEKEILTIPGDDTMICILFVPTYFTVHDLLHFYIGDDIVNKQVSNFRILRNQQKGMGFNFTVLIKFRNALDAKNFKEEFNGKSFSRMDPETCHVISVKEIVFQKKLFQRPAANEDFPYLLTDPFTVKKKKELVKVELPTCPVCLERMDSETTGLVTIPCQHTFHCQCLNKWKNSRCPVCRHSSLRLSRESLLKQAGDSAHCATCGSTDNLWICLICGNVGCGRYNSKHAIKHYEETLHCFAMDIRTQRVWDYAGDNYVHRLVQNEVDGKLVEVGGSGDDDNNDIGNSDELQNVVYGNRSKNGEKSNSNKKDGELAANFLRHREYHLEYVQVLISQLESQREYYELKLQEKDQTASDSSNVESLKKSMEDLKLQFQVTQKEWQKREMAQKSKLEEDMLVIEGLQANLDHLSKKQEQLERENKALEESKQDLEEQVKDLMFYLDSQEKFKDADESVKEGTILIQQPHGAAQASKSKKKRNKNKKAGK
With B1, the binding result was “no binding”.

These data come from paper PMC9041338.
